These are yes or no findings as the source states them, for the method shown. Binding seen in cells or lysates may run through a third protein. A yes stands for co-enrichment or nearness to the bait. Other partners may have been found. Sequences can lack the tags named with a protein.
T1: Flag-tagged NUSAP1 full-length (nucleolar and spindle-associated protein 1) (human) (UniProt Q9BXS6)
T1 sequence: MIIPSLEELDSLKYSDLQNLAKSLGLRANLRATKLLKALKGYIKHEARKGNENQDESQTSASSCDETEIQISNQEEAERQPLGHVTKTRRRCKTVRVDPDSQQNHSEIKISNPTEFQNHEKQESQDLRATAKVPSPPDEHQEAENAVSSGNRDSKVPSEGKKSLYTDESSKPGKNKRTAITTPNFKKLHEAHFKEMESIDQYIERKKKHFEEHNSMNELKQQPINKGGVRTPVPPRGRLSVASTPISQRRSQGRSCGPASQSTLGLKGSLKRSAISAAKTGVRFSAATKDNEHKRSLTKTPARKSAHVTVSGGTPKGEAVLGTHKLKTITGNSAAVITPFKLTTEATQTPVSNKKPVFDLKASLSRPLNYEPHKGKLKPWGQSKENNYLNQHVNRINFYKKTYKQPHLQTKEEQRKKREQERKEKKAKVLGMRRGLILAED

Amino acid sequences for entries named in this document (tags omitted).
UniProt Q12905: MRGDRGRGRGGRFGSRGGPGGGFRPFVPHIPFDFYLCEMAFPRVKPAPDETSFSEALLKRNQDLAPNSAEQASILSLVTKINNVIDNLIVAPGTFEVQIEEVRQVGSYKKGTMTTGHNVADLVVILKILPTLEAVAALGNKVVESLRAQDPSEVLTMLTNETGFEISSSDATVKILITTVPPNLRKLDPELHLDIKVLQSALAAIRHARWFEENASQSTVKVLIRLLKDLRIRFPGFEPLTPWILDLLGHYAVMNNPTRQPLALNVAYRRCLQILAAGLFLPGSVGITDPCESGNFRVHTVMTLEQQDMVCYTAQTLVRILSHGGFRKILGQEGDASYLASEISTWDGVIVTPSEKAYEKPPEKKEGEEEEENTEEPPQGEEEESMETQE
UniProt Q86SE5: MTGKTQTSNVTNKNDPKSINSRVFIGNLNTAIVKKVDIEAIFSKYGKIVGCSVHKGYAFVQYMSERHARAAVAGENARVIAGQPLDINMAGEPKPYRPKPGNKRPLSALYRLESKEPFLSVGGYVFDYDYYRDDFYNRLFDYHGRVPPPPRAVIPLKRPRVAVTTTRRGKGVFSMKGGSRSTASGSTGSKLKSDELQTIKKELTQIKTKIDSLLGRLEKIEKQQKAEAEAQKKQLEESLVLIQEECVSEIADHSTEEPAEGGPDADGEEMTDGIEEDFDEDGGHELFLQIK
UniProt P38159: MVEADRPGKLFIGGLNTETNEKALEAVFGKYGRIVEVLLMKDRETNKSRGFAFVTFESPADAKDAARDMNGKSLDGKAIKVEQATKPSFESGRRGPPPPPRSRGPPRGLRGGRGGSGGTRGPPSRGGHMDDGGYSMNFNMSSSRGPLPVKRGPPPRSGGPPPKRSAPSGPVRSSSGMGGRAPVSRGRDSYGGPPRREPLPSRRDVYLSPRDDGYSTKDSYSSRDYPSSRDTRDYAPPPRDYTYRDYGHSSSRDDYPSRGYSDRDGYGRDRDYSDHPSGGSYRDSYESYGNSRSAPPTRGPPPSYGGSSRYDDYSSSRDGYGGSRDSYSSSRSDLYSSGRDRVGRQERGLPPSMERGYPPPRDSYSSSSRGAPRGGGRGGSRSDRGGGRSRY
UniProt P35637: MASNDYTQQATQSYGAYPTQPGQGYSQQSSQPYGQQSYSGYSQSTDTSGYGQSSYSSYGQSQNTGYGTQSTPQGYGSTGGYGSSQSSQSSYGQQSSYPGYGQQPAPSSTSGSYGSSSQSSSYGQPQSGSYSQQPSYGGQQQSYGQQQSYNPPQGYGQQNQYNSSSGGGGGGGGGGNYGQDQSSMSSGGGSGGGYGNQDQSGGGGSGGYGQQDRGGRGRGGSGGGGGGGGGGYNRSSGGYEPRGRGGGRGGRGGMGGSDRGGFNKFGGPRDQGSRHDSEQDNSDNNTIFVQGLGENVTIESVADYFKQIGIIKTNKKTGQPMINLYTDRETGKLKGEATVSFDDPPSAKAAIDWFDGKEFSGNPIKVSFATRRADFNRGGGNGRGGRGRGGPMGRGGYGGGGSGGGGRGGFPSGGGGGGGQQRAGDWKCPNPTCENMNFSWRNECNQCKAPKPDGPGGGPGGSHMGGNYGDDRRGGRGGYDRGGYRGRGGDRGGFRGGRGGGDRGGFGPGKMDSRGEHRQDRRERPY
UniProt Q14980: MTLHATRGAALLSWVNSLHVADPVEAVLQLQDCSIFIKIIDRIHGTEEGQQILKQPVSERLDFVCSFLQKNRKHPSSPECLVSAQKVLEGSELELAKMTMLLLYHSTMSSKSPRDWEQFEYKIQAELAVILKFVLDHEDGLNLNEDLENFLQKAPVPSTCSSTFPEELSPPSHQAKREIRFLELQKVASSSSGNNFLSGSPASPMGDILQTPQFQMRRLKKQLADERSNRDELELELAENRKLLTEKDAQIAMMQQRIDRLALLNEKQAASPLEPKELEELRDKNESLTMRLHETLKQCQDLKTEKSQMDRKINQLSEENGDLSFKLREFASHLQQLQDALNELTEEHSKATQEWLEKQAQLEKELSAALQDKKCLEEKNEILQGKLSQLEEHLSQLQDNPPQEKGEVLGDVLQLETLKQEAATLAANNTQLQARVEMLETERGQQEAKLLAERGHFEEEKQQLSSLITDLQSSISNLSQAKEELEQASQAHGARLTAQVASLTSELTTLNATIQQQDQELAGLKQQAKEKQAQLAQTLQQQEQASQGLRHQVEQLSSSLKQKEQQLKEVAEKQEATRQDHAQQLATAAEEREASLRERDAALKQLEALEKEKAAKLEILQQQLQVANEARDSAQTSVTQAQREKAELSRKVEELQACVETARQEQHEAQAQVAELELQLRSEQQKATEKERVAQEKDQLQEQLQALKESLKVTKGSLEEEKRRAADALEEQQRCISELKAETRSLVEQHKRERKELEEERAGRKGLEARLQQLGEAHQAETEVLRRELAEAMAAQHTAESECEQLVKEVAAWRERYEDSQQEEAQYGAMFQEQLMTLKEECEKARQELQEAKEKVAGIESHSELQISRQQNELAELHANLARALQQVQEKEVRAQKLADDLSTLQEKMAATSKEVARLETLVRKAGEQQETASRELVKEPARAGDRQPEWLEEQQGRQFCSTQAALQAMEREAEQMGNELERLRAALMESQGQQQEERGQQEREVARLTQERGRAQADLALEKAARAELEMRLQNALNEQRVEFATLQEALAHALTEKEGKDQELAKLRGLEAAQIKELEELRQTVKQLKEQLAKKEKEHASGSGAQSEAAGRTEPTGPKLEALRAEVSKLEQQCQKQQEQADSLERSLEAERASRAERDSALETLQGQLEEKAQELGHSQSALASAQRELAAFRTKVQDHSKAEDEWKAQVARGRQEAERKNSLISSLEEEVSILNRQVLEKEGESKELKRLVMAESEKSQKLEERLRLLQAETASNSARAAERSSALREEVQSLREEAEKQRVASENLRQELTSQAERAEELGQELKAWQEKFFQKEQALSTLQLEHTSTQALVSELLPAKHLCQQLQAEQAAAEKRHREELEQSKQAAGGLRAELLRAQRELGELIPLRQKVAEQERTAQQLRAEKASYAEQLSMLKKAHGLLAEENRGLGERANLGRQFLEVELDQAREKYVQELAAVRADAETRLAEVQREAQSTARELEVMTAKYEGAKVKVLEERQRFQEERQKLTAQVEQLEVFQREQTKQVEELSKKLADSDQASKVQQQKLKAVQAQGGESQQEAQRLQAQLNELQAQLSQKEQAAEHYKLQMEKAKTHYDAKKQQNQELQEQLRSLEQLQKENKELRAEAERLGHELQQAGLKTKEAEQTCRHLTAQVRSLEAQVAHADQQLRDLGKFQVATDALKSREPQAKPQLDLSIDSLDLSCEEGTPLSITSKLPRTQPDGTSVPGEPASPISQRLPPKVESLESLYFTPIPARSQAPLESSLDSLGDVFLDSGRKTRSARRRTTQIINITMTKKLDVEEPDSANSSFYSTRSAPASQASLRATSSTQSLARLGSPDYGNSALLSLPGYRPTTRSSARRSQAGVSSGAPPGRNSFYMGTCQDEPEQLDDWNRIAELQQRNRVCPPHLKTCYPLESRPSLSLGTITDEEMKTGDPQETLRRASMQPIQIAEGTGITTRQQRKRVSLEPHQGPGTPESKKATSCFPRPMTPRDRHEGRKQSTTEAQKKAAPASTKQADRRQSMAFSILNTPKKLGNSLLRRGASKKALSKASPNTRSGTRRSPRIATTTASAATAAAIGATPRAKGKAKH
UniProt O75475: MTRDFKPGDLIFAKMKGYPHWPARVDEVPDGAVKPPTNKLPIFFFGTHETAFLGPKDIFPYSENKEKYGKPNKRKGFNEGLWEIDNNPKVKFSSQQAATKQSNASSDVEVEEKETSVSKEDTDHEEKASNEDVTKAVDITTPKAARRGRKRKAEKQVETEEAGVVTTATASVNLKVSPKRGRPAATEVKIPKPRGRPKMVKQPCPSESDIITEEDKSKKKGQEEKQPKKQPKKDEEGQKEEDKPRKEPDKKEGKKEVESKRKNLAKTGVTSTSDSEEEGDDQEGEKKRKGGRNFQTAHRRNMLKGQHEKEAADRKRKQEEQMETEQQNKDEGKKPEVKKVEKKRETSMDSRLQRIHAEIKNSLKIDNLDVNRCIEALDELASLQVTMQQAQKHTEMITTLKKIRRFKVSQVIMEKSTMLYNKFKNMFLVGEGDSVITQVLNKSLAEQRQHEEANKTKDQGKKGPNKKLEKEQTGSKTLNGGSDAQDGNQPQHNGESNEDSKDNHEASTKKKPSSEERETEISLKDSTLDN
UniProt Q9UKM9: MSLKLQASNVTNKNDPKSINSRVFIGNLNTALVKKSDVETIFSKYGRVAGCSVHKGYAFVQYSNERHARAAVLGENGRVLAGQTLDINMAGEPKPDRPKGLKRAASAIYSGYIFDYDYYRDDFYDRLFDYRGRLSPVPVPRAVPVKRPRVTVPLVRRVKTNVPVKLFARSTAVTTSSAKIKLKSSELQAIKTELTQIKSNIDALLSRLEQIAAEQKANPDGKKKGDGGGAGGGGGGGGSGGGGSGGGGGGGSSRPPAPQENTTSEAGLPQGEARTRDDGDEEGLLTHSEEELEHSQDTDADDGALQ
UniProt Q96E39: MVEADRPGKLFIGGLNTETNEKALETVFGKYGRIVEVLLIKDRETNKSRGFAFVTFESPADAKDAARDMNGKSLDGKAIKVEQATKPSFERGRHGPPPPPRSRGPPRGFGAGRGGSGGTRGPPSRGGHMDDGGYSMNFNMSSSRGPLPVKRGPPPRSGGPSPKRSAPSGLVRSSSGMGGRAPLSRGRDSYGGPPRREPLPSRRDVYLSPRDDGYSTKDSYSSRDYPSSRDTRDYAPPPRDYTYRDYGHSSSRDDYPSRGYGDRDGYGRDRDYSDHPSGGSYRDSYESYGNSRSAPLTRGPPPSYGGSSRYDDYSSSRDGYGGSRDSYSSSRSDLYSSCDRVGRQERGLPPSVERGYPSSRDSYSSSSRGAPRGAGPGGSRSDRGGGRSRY


target: T1, Flag-tagged NUSAP1 full-length (nucleolar and spindle-associated protein 1) (human); assay: affinity purification with mass spectrometry; 293T cells transiently transfected with Flag-NUSAP1 or empty vector, treated with nocodazole or DMSO for 24 h; lysis in 0.2% NP-40 buffer (50 mM Tris-HCl pH 8.0, 150 mM NaCl), micrococcal nuclease; anti-Flag M2 antibody and Protein-G Dynabeads, 4 °C; hits by SAINT (score > 0.9, BFDR < 0.05), triplicates

Row | binding | Molecule
1 | binds | ILF2 (from UniProt Q12905 1-390)
2 | binds | MDC1 (from UniProt Q14676 1-2089)
3 | binds | RALYL (from UniProt Q86SE5 1-291)
4 | binds | RBMX (from UniProt P38159 1-391)
5 | binds | ILF3 (protein, UniProt Q12906 1-894) MRPMRIFVNDDRHVMAKHSSVYPTQEELEAVQNMVSHTERALKAVSDWIDEQEKGSSEQAESDNMDVPPEDDSKEGAGEQKTEHMTRTLRGVMRVGLVAKGLLLKGDLDLELVLLCKEKPTTALLDKVADNLAIQLAAVTEDKYEILQSVDDAAIVIKNTKEPPLSLTIHLTSPVVREEMEKVLAGETLSVNDPPDVLDRQKCLAALASLRHAKWFQARANGLKSCVIVIRVLRDLCTRVPTWGPLRGWPLELLCEKSIGTANRPMGAGEALRRVLECLASGIVMPDGSGIYDPCEKEATDAIGHLDRQQREDITQSAQHALRLAAFGQLHKVLGMDPLPSKMPKKPKNENPVDYTVQIPPSTTYAITPMKRPMEEDGEEKSPSKKKKKIQKKEEKAEPPQAMNALMRLNQLKPGLQYKLVSQTGPVHAPIFTMSVEVDGNSFEASGPSKKTAKLHVAVKVLQDMGLPTGAEGRDSSKGEDSAEETEAKPAVVAPAPVVEAVSTPSAAFPSDATAEQGPILTKHGKNPVMELNEKRRGLKYELISETGGSHDKRFVMEVEVDGQKFQGAGSNKKVAKAYAALAALEKLFPDTPLALDANKKKRAPVPVRGGPKFAAKPHNPGFGMGGPMHNEVPPPPNLRGRGRGGSIRGRGRGRGFGGANHGGYMNAGAGYGSYGYGGNSATAGYSQFYSNGGHSGNASGGGGGGGGGSSGYGSYYQGDNYNSPVPPKHAGKKQPHGGQQKPSYGSGYQSHQGQQQSYNQSPYSNYGPPQGKQKGYNHGQGSYSYSNSYNSPGGGGGSDYNYESKFNYSGSGGRSGGNSYGSGGASYNPGSHGGYGGGSGGGSSYQGKQGGYSQSNYNSPGSGQNYSGPPSSYQSSQGGYGRNADHSMNYQYR

The remaining lines, values behind:

Row | Molecule | binding
6 | FUS (from UniProt P35637 1-526) | binds
7 | NUMA1 (from UniProt Q14980 1-2115) | binds
8 | PSIP1 (from UniProt O75475 1-530) | binds
9 | RALY (from UniProt Q9UKM9 1-306) | binds
10 | RMXL1 (from UniProt Q96E39 1-390) | binds
11 | ZNF346 (protein, UniProt Q9UL40 1-294) MEYPAPATVQAADGGAAGPYSSSELLEGQEPDGVRFDRERARRLWEAVSGAQPVGREEVEHMIQKNQCLFTNTQCKVCCALLISESQKLAHYQSKKHANKVKRYLAIHGMETLKGETKKLDSDQKSSRSKDKNQCCPICNMTFSSPVVAQSHYLGKTHAKNLKLKQQSTKVEALHQNREMIDPDKFCSLCHATFNDPVMAQQHYVGKKHRKQETKLKLMARYGRLADPAVTDFPAGKGYPCKTCKIVLNSIEQYQAHVSGFKHKNQSPKTVASSLGQIPMQRQPIQKDSTTLED | binds

From paper PMC10093842
